The results in this text go back to the RNAGym collection of RNA variant scans (doi:10.1126/science.aae0568).

The labels stand for the following.
B1: tRNA (parent)
chain: GUUCCGUUGGCGUAAUGGUAACGCGUCUCCCUCCUAAGGAGAAGACUGCGGGUUCGAGUCCCGUACGGAACG

Variants at the floor of the assay are shown more often than the library holds them.

The variants in the data set derive from B1. The experiment in a line: yeast fitness relative to wild type (ratio to wild type); higher = fitter; tRNA-Arg(CCU), competitive growth, 37 C, YPD. In outline: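 Genotype frequency changes were the basis for Darwinian fitness relative to wild type. The frequencies came from 100-nucleotide paired-end sequencing of gene amplicons from the start population and each end population of pooled yeast strains with tRNA-Arg(CCU) gene variants at the native locus. Competition ran in YPD at 37°C for 24 hours in six replicates, genotypes needed ≥ 100 starting reads, and estimates < 0.5 were set to 0.5.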
For C4A C11U C33G A42C C49U C55G, the yeast fitness is at most 0.5.

As to C31U U35A G51C G68A, the yeast fitness is at most 0.5. Regarding U28C U32A A37C A43C C49U, the yeast fitness is at most 0.5.

For U3G U28A G63C, the yeast fitness is at most 0.5.

U3G C5G G10A C30G C31G C49A C60U G67A: the yeast fitness was at most 0.5. Then C27G G56A C66A, with at most 0.5; and U8A A45U G50C, with at most 0.5; and A14U A21G U28A C55G, with at most 0.5. Consider U13A C61G G63A A70G, for which the yeast fitness was at most 0.5.

In the case of C4U A37C G38A, the yeast fitness is 0.613. Consider G18U G39A C62A A69U, for which the yeast fitness is at most 0.5. Then C5U C33U A36C C61A G68C, with at most 0.5.

Consider U3A C11G C31G C49U, for which the yeast fitness was at most 0.5. In the case of U3A A21G C55G A70G, the yeast fitness was at most 0.5. Regarding A20C C27U C34G A43C C61U C62G, the yeast fitness was at most 0.5. Consider G12A C61U, for which the yeast fitness turned out to be 0.924.

With C11U G23C G41A C62A, the yeast fitness is at most 0.5. In the case of U2A C31G A65G, the yeast fitness was 0.642. Then A20C G38C A42G A70C, with at most 0.5; and U53C C55U, with at most 0.5. For C31U A45C U47C C61A C62U A65U A69C, the yeast fitness was at most 0.5. Then C4A C27G C60U A69U, with at most 0.5. On to C11G C49U C60U, for which the yeast fitness was at most 0.5. Turning to C5A G9A G41A U53C U64A, the yeast fitness was at most 0.5. With C4U U8A C24U C62U G68C A69G, the yeast fitness is at most 0.5.

As to U13A C33U A37G A40G A45G C61G, the yeast fitness is at most 0.5.

Turning to C29U C61U G67A, the yeast fitness was at most 0.5. Regarding U13G C61A C66A, the yeast fitness is at most 0.5.

Turning to A42G G44C C60A G67C G68A, the yeast fitness is at most 0.5.

U2A G9A A20C C24U A69U: the yeast fitness is at most 0.5. As for C4U A21C C27G U53A, the yeast fitness is at most 0.5. A36G G48A C49U: the yeast fitness stood at 0.606. Regarding C5A U8C A20G C34G A43U C66U, the yeast fitness is at most 0.5.

As to G39C A40G C66G A69C, the yeast fitness was at most 0.5. Take C31G G41A G52C A65U G67C: the yeast fitness is at most 0.5. Turning to U3A C4U U7A C24U C61A C62G A65G, the yeast fitness is at most 0.5.

In the case of U2C C27A A45C C49A A70G, the yeast fitness was at most 0.5.

Take U3G C11U U19C A20U A42C C49U G56C: the yeast fitness was at most 0.5. As for U2G A20U C22A, the yeast fitness is at most 0.5. Turning to C4G C11G G51C, the yeast fitness was at most 0.5.

For the variant C4U U7G C11U C61G, the yeast fitness is at most 0.5. In the case of U2C A20C C27A A36G A43G, the yeast fitness is at most 0.5. With A20C G48C A57G A65C G67C A69G, the yeast fitness is at most 0.5.

For C5A A15G C33A A57G C61U, the yeast fitness was at most 0.5.

Turning to C34U A37G A40U, the yeast fitness is at most 0.5.

Consider C29G G48A G67U, for which the yeast fitness was at most 0.5. As for C29G C31U C66U, the figure is at most 0.5; as for C5A A14C G18A C22A U47C, at most 0.5; as for U8C A20U C33A C66A, at most 0.5. C5G A14G G25C C49G: the yeast fitness was at most 0.5. Take C22U G68A: the yeast fitness is 0.852. Take U8C A36C A37G C49A: the yeast fitness is at most 0.5. As for C4A U28A C30G U59C, the figure is at most 0.5; as for A20C U35A A36G G44C G68U, at most 0.5.

Take C29U A43U C46A G67A: the yeast fitness is at most 0.5. In the case of G25A A36U C46A, the yeast fitness is at most 0.5. Regarding C5G A21G C27G C34G A43C C46G C66U A70G, the yeast fitness was at most 0.5. Regarding C5A C31G A37G C49U C62U G63C, the yeast fitness was at most 0.5. As for U2G G6A A70U, the yeast fitness was at most 0.5. As for C11G U13G A21G, the yeast fitness came to 0.785. Then G18A G68C, with 0.662; and C27G C30G C31U A42G U54C, with at most 0.5; and U13G U32A C33A G56C, with at most 0.5. Consider C11U U32A C33A C34U, for which the yeast fitness was at most 0.5. In the case of C4A A14G C46A G51A U53A C62A G68A, the yeast fitness was at most 0.5.

As for U2C G6A C61G, the yeast fitness was at most 0.5.

As to U7C U8C G41A A42C G50C A70G, the yeast fitness is at most 0.5. On to G10A C11U A36G A37G G67C, for which the yeast fitness was at most 0.5. With G9C A14C C29A, the yeast fitness was at most 0.5.

As to C29U C31U U54G A65U A69U, the yeast fitness was at most 0.5. As for G9C G44C C61U, the yeast fitness was found to be 0.584. Take G9U C27A A70G: the yeast fitness was at most 0.5. Turning to C27G A36G A40G A65G, the yeast fitness was at most 0.5. As for G6C C46G A57G C62U C66U, the figure is at most 0.5. In the case of U3A C5A C33U G51C, the yeast fitness is at most 0.5. Regarding C27U A37C C60G A65G, the yeast fitness was at most 0.5. On to C11A G17C G58C, for which the yeast fitness is at most 0.5.

As to C4G A21C C27A U28G A69U, the yeast fitness was at most 0.5. Take A14G G18A C34G A43C: the yeast fitness was at most 0.5. With G12C C29U C33U G51A G56A G63C, the yeast fitness is at most 0.5.

Turning to C4G G17C A20U A37C, the yeast fitness worked out at 0.717. For the variant G25A C46A G52C G68A, the yeast fitness was at most 0.5.

In the case of A20C C29G G58A C61G, the yeast fitness is at most 0.5. In the case of U26C A45G, the yeast fitness was found to be 0.966. Regarding A20U U28A C34A A37U C62U, the yeast fitness is at most 0.5. On to C27U C34G C49U, for which the yeast fitness is at most 0.5. As to C27A A37C G41A C49U C60G, the yeast fitness was at most 0.5. As for C24G A37U U59A, the figure is at most 0.5; as for C22G U47A G52A, at most 0.5; as for C24G U32C C49G G67A A69C, at most 0.5. On to C5U C55G A69U, for which the yeast fitness was at most 0.5. Turning to G23C C29A A37G, the yeast fitness is at most 0.5. On to U2G U3A, for which the yeast fitness was determined as 0.736. G10A C27U A40U: the yeast fitness is at most 0.5. For U13C C60G G67A, the yeast fitness is at most 0.5. With C30U A42C G48C A65C, the yeast fitness is at most 0.5.

With C4G A14C A15C U28G C49G G63A, the yeast fitness is at most 0.5. Regarding A14G C29G A43C G52A C61A, the yeast fitness was at most 0.5. On to C5A U28C U35C C66U, for which the yeast fitness is at most 0.5. G10U A40G G58A G68C: the yeast fitness is 0.631. For U8C C31G G51A G68C, the yeast fitness is at most 0.5. On to U8A C30G C55G A69U, for which the yeast fitness was at most 0.5. For the variant G6A C29G U32C, the yeast fitness is 0.548. Turning to A14U C27U C55U, the yeast fitness is at most 0.5. As for A15U G48A, the figure is 0.763. As for U3A C5A, the figure is 0.806; as for U8G U26A A43C C55G C60A, at most 0.5; as for U7A G48A U59C G63A, at most 0.5. As for C33U G41A C61U, the yeast fitness was at most 0.5. Then G6C C24U U28C G52C C60G, with at most 0.5. As to G9A U13C C24G C34G, the yeast fitness was at most 0.5. As to C11A C29A G52C, the yeast fitness was at most 0.5. Take C11A G50C C62G: the yeast fitness was at most 0.5. As for C24G C27G A37G, the figure is 0.575.

Take A20C C34A A65C A70C: the yeast fitness was at most 0.5. Consider G12A C33G U35C U59A A69U, for which the yeast fitness is at most 0.5. In the case of A20U C27U C55G, the yeast fitness is at most 0.5. For the variant C5U G9C A42G C49G, the yeast fitness was at most 0.5. For A21U A42C U47G A69U, the yeast fitness is at most 0.5. In the case of A36U G48A G50U A57U, the yeast fitness is at most 0.5.

For the variant A21G A40C C55A, the yeast fitness was at most 0.5. As for C5G C24U C62U, the yeast fitness is at most 0.5. With C5U A14U U16A C34A C66U, the yeast fitness was at most 0.5. As for C11U C66G A69U, the figure is 0.555. For C4U C46A G67C, the yeast fitness is at most 0.5. For the variant C4U A14G G17C C49A, the yeast fitness was at most 0.5. Then C24U C33U C34G A40U, with at most 0.5; and C29A C30G A45U C66A, with at most 0.5.

On to U2G A15U C24G U53A U64A, for which the yeast fitness is at most 0.5. With A57U U64A, the yeast fitness worked out at 0.678.

As to G12A A45C G50U, the yeast fitness was at most 0.5. As for G12A A14U C33A, the figure is at most 0.5; as for U8C U26A U53A, at most 0.5. Then U16A C46G A70G, with 0.604. For A37U A45U U47C C62G, the yeast fitness is at most 0.5. As for A14G A57U A69G A70C, the yeast fitness is at most 0.5. As for C11A U35A C61U, the figure is at most 0.5; as for G12C C33U A42C, at most 0.5. As for C30G C46G U53C A57G, the yeast fitness was at most 0.5. Then C27G U35A, with 0.636; and C5U U16G C34U A40G A43G C62A, with at most 0.5.

On to A21C A45C U53C, for which the yeast fitness is at most 0.5. As for U19A C22G A45U C49U U64A, the figure is at most 0.5; as for G17A C24A U28C U53A, at most 0.5. As for C33U A57C C66G, the yeast fitness was at most 0.5.

As to C4G U8G C31A A40C, the yeast fitness is at most 0.5. As for U2C C24A U26A U47C C49U C61U, the figure is at most 0.5. For C55A G67A A70G, the yeast fitness is at most 0.5. As for C27U G41A U47C, the figure is 1.08; as for C5A U53G C60A, at most 0.5; as for C24A G39C U47A, at most 0.5. C4U A15C A40G U53C: the yeast fitness was at most 0.5. U2A A57U G68C: the yeast fitness was at most 0.5.

On to G10C A40U A42G A45G G51C C61U, for which the yeast fitness was at most 0.5. As for U2G G6A C31G G51A G68C, the figure is at most 0.5; as for U16A C61G C62G G68C, at most 0.5.

U8A A15U C27G A36G A70C: the yeast fitness was at most 0.5.

With C24U C29U C30G C60G G67A, the yeast fitness was at most 0.5. Then A15C C31A A37G C55U A57G, with at most 0.5; and A20C C27U G67C A69U, with at most 0.5; and G17A C34A A40G, with at most 0.5. Consider C22G U32C A37G U53C, for which the yeast fitness is at most 0.5. As for G9A G44A C46U A69C, the figure is 0.787. Turning to C5G U13C A43C C55A, the yeast fitness was at most 0.5. Turning to C33U C61G, the yeast fitness is at most 0.5. In the case of U32G A42G A45C G56A C66U, the yeast fitness is at most 0.5. As for C5U G17C C30A U35C, the figure is at most 0.5.
